The text below walks through data of the supplement of paper PMC10849652.

By UniProt entry, the sequences of proteins in these tests, tags left out. Where a name states a change or a piece, a line headed by the entry shows the natural chain unless it says otherwise.
UniProt P30711: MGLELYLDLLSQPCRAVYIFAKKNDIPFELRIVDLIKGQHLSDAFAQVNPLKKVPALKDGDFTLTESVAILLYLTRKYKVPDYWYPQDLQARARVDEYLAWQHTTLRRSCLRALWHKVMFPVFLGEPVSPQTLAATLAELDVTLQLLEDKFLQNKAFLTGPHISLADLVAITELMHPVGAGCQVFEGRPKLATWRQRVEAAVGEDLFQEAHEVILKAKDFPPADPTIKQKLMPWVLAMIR
UniProt Q9BSH5: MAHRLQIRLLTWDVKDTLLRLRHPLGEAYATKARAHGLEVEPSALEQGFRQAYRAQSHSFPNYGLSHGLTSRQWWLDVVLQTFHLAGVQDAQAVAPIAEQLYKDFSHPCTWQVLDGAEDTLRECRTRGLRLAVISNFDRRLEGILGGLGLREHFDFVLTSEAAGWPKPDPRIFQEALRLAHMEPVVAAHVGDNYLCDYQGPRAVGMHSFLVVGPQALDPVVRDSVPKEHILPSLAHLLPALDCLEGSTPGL
UniProt P69891: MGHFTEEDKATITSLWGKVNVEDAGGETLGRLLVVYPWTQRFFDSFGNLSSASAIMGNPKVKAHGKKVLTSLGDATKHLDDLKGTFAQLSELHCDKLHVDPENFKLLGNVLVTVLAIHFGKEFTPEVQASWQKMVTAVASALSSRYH
UniProt P29084: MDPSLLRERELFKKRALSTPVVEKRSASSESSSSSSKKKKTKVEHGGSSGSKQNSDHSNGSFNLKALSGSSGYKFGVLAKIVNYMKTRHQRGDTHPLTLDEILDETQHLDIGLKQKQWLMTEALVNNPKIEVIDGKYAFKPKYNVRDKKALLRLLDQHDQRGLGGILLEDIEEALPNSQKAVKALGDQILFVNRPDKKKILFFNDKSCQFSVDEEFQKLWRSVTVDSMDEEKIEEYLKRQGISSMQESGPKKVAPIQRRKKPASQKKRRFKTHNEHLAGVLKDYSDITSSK
UniProt P15170, whole entry, looked up: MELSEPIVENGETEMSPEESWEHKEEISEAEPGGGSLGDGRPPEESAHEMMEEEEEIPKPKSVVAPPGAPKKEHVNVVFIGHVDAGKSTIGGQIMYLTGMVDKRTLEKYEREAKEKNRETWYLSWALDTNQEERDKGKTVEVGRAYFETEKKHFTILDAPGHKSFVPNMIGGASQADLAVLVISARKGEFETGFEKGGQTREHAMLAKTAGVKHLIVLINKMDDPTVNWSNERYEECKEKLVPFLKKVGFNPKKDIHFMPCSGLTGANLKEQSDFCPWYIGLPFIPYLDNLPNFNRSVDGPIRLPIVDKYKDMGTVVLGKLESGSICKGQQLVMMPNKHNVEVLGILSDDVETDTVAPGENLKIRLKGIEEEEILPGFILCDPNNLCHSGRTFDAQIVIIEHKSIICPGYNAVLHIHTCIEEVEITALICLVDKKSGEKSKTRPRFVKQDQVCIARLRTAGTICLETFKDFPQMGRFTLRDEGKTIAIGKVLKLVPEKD
UniProt P34947, whole entry, looked up: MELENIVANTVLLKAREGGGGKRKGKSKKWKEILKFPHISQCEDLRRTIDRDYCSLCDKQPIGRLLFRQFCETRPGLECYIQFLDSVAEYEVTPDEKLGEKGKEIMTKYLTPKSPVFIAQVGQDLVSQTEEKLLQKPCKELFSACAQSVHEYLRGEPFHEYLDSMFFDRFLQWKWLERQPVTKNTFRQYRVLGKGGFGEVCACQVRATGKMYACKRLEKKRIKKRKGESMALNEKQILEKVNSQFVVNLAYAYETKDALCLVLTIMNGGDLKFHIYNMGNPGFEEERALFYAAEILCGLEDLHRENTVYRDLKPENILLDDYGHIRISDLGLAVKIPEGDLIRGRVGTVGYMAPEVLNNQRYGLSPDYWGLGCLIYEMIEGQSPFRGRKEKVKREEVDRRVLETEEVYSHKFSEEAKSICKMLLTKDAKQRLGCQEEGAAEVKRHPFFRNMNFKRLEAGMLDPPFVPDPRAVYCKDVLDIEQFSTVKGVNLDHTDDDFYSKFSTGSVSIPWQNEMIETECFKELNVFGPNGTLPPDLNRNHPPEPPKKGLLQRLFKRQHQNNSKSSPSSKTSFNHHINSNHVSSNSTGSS
UniProt P16402, whole entry, looked up: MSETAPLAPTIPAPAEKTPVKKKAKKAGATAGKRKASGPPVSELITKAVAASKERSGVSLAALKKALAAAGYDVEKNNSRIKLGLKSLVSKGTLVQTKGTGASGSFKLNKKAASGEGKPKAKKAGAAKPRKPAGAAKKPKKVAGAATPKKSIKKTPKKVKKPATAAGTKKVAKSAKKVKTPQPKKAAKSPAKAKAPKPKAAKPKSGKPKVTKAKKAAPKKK
UniProt P52657, whole entry, looked up: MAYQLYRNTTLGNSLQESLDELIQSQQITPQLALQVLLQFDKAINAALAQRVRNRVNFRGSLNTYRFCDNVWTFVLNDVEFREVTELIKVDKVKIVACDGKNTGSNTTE
UniProt P51610: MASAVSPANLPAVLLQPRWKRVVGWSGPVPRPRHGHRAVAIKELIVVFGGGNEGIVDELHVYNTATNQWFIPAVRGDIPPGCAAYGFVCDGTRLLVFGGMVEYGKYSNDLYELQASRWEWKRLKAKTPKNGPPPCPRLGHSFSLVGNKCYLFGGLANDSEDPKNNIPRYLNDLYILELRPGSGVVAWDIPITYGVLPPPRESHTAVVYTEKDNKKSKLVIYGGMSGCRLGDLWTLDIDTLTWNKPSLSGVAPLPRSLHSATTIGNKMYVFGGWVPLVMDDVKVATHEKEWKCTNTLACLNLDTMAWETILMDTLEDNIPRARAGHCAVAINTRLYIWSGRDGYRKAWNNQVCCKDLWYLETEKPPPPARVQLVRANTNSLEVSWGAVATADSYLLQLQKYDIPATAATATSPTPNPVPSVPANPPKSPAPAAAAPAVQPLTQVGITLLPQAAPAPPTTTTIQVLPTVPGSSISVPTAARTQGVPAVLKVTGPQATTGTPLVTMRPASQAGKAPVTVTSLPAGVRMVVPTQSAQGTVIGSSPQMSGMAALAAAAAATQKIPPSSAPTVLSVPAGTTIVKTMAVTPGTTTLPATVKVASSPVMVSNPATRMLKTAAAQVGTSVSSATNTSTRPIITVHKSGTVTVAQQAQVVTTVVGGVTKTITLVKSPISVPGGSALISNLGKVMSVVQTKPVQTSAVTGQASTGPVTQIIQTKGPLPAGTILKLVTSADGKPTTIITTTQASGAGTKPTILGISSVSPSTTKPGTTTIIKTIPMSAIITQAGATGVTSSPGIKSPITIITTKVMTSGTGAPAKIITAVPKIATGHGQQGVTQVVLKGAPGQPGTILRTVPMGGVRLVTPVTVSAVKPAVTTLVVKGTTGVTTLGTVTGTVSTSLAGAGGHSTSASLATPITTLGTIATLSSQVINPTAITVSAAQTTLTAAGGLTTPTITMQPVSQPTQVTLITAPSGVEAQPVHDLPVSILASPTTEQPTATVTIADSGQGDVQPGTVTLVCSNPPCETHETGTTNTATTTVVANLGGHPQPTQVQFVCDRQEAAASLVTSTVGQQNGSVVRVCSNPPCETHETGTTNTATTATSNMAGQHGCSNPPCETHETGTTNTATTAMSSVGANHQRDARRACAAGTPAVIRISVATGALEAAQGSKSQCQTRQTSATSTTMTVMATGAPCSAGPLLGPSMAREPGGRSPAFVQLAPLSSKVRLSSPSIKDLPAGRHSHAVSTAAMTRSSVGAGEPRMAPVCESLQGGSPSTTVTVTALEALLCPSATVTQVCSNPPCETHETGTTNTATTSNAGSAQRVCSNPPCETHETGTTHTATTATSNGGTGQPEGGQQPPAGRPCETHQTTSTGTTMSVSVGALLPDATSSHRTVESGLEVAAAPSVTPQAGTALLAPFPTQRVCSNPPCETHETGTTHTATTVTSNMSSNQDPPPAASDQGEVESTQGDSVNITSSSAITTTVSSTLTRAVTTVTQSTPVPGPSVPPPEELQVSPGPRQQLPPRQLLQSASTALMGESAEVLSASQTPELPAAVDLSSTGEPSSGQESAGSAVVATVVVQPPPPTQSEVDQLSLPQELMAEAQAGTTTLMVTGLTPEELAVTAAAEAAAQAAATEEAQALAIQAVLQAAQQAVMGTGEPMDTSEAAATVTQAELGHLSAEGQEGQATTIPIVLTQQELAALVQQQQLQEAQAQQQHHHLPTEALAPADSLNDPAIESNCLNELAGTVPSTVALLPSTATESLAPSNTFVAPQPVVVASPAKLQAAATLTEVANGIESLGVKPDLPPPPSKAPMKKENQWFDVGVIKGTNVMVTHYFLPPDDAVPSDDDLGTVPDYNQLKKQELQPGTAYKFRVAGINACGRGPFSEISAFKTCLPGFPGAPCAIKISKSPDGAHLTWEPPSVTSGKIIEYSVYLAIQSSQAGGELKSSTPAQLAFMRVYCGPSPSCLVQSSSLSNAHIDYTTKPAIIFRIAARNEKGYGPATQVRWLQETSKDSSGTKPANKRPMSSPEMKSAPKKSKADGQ
UniProt Q9H583: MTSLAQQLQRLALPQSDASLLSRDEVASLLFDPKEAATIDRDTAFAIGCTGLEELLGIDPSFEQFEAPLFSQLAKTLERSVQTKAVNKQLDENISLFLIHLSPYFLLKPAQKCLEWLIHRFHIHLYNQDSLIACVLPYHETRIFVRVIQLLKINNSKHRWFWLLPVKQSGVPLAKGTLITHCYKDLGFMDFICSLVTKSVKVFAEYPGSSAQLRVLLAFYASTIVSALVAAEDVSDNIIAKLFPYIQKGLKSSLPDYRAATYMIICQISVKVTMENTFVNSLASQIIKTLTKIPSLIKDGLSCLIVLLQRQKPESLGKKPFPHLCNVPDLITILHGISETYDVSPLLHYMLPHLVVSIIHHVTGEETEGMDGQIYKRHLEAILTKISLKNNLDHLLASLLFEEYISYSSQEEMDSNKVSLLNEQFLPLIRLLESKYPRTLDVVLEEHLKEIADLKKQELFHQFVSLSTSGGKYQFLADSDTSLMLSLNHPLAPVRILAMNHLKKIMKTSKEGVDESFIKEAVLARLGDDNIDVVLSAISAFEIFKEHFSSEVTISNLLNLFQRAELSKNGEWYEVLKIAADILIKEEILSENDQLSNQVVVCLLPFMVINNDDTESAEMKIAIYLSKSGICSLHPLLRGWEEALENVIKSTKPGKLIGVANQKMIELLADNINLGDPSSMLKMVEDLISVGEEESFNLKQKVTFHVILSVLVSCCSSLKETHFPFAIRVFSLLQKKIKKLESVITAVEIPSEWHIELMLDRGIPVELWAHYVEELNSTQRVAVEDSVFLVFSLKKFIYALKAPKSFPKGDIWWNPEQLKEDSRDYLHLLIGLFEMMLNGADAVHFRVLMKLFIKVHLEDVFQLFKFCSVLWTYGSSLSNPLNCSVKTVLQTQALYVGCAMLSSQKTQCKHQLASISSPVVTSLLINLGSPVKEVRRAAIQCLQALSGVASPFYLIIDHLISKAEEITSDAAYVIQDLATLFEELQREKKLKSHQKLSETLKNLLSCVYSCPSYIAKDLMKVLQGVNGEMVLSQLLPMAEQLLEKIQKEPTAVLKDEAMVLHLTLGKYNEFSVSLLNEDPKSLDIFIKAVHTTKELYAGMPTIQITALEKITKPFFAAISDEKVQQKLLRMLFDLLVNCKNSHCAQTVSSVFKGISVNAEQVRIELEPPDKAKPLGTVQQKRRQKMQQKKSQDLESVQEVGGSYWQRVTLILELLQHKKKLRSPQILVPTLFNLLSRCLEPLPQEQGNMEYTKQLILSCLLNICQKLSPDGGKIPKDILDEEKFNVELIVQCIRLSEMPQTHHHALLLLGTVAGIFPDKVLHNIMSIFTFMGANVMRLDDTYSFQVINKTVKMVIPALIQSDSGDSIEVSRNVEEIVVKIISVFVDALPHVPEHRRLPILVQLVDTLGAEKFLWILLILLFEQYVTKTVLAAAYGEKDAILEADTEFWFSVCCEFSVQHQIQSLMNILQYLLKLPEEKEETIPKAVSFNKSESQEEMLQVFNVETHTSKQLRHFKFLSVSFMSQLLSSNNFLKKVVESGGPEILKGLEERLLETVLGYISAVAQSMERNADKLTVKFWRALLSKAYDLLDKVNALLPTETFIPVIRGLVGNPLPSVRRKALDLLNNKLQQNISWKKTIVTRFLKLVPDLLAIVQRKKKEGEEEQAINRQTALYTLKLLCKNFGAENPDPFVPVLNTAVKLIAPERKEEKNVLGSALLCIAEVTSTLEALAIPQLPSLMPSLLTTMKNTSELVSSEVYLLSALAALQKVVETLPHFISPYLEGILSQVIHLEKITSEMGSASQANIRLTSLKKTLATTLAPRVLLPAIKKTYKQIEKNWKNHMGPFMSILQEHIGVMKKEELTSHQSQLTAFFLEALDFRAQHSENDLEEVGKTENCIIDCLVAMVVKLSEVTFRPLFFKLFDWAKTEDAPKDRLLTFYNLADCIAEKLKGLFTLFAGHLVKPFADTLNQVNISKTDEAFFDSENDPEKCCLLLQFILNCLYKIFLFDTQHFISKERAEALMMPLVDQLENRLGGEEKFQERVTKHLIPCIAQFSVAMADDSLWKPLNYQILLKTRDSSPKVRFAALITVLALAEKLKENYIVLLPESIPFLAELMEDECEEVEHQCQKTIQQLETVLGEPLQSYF

Assay in all cases: log2 fold change, soluble protein after heating vs DMSO (PISA); higher = thermal stabilisation; K562 lysate, 10 uM; active = over 0.2 and 3.5 SD of the protein, either way, in both replicates (recomputed)
Compound in experiment [1]: NCC(=O)Nc1ccc(-n2nc(C(F)(F)F)cc2-c2ccc3c(ccc4ccccc43)c2)cc1
In a few lines:
(§1)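 The values are log-two fold changes in thermal stability compared with solvent controls and come from duplicates. They were obtained by TMTpro 16plex LC-MS/MS, with channel sums equalised, on the supernatant after 21,000xg for 90 min. That supernatant came from crude K562 extract at 1 mg/mL protein treated with 10 μM compound for 30 min, heated for 3 min across 48°C-58°C, pooled and brought to 0.5% NP-40 at 4°C.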

Compound in the next experiment: O=C(CCCCCCC(=O)Nc1ccccc1)NO [vorinostat]
In a few lines:
as §1

Compound in the next experiment: O=C(O)c1ccc2c(c1)nc(Nc1cccc(Cl)c1)c1ccncc12 [silmitasertib]
The procedure, abridged: as §1

Compound in experiment [2]: O=C1NC(=O)C(c2cnc3ccccn23)=C1c1cn2c3c(cc(F)cc13)CN(C(=O)N1CCCCC1)CC2
The procedure, abridged:
as §1

Compound in the next experiment: c1cn2cc(-c3ccc4cn[nH]c4c3)nc(Nc3ccc(N4CCOCC4)cc3)c2n1 [entospletinib]
In a few lines: as §1

The list shows a part of the results.

GTF2A1 (UniProt P52655): the log2 fold change was inactive: -0.029 in experiment [1]; inactive: 0.094 with vorinostat; inactive: -0.043 in the experiment with silmitasertib; inactive: 0.052 in experiment [2]; inactive: 0.039 with entospletinib.

For H1-4 (UniProt P10412), the log2 fold change is inactive: -0.014 in experiment [1]; inactive: 0.168 in the experiment with vorinostat; inactive: -0.005 with silmitasertib; inactive: 0.005 in experiment [2]; inactive: 0.009 in the experiment with entospletinib.

Take GTF3C5 isoform 3 (UniProt Q9Y5Q8): the log2 fold change in experiment [1] was inactive: 0.002; in the experiment with vorinostat, active: -0.296; with silmitasertib it was inactive: 0.016; in experiment [2], inactive: 0.04; with entospletinib, inactive: -0.021.

With GSTT1 (UniProt P30711), the log2 fold change in experiment [1] was inactive: -0.058; in the experiment with vorinostat, inactive: 0.167; in the experiment with silmitasertib it was inactive: 0.005; in experiment [2], inactive: 0.022; with entospletinib, inactive: -0.049.

Regarding GTF2F2 (UniProt P13984), the log2 fold change is inactive: -0.003 in experiment [1]; inactive: 0.108 with vorinostat; inactive: -0.019 with silmitasertib; inactive: -0.019 in experiment [2]; inactive: 0.003 with entospletinib.

In the case of HAUS2 (UniProt Q9NVX0), the log2 fold change was inactive: -0.052 in experiment [1]; active: -0.514 with vorinostat; inactive: -0.037 with silmitasertib; inactive: 0.039 in experiment [2]; inactive: -0.029 with entospletinib.

Take HAGHL isoform 2 (UniProt Q6PII5): the log2 fold change in experiment [1] was inactive: -0.006; in the experiment with vorinostat, inactive: 0.071; in the experiment with silmitasertib it was inactive: 0.031; in experiment [2], inactive: -0.019; with entospletinib it was inactive: -0.006.

Turning to HDHD3 (UniProt Q9BSH5), the log2 fold change in experiment [1] is inactive: -0.09; with vorinostat, inactive: -0.002; with silmitasertib, inactive: 0.035; in experiment [2], inactive: -0.016; with entospletinib it was inactive: -0.012.

Take HBG1 (UniProt P69891): the log2 fold change was inactive: -0.078 in experiment [1]; inactive: 0.1 in the experiment with vorinostat; inactive: -0.043 with silmitasertib; inactive: 0.04 in experiment [2]; inactive: -0.04 with entospletinib.

Regarding GRSF1 (UniProt Q12849), the log2 fold change in experiment [1] was inactive: 0.022; with vorinostat, inactive: -0.012; in the experiment with silmitasertib, inactive: 0.021; in experiment [2], inactive: -0.022; with entospletinib it was inactive: 0.019.

Turning to HDHD5 (UniProt Q9BXW7), the log2 fold change is inactive: 0.018 in experiment [1]; active: -0.249 in the experiment with vorinostat; inactive: 0.043 in the experiment with silmitasertib; inactive: -0.002 in experiment [2]; inactive: -0.059 in the experiment with entospletinib.

With GTF2E2 (UniProt P29084), the log2 fold change in experiment [1] is inactive: 0; with vorinostat it was inactive: 0.04; with silmitasertib, inactive: -0.016; in experiment [2], inactive: 0.008; with entospletinib, inactive: -0.001.

On to GTF2H4 (UniProt Q92759), for which the log2 fold change in experiment [1] is inactive: 0.01; in the experiment with vorinostat it was active: -0.24; with silmitasertib it was inactive: -0.021; in experiment [2] it was inactive: -0.021; with entospletinib, inactive: 0.046.

In the case of GSR isoform 5 (UniProt P00390), the log2 fold change was inactive: 0.011 in experiment [1], inactive: 0.16 in the experiment with vorinostat, inactive: -0.031 with silmitasertib and inactive: 0.095 in experiment [2].

As to GXYLT1 (UniProt Q4G148), the log2 fold change in experiment [1] was inactive: -0.058; with vorinostat, inactive: 0.058; with silmitasertib, inactive: -0.003; in experiment [2], inactive: 0.031; in the experiment with entospletinib, inactive: 0.097.

For the target GSPT1 isoform 2 (UniProt P15170), the log2 fold change in experiment [1] was inactive: 0.035.

Turning to GRK5 (UniProt P34947), the log2 fold change in experiment [1] was inactive: 0.032; in the experiment with vorinostat it was inactive: -0.218; with silmitasertib it was inactive: 0.499.

HAUS4 (UniProt Q9H6D7): the log2 fold change in experiment [1] was inactive: -0.022; with vorinostat, active: -0.255; in the experiment with silmitasertib it was inactive: 0.045; in experiment [2], inactive: -0.017; with entospletinib, inactive: -0.018.

Turning to GYG1 isoform 2 (UniProt P46976), the log2 fold change in experiment [1] is inactive: -0.161; with vorinostat it was inactive: 0.093; in the experiment with silmitasertib it was inactive: 0.25; in experiment [2], inactive: -0.094; in the experiment with entospletinib it was inactive: 0.056.

Regarding H1-3 (UniProt P16402), the log2 fold change in experiment [1] was inactive: 0.027; with vorinostat it was inactive: 0.163; in the experiment with silmitasertib, inactive: -0.017; in experiment [2] it was inactive: 0.03; in the experiment with entospletinib, inactive: 0.005.

Regarding UniProt H0YHG0, the log2 fold change was inactive: 0.021 in experiment [1]; inactive: 0.103 with vorinostat; inactive: -0.029 with silmitasertib; inactive: -0.017 in experiment [2]; inactive: -0.021 in the experiment with entospletinib.

For GTF2A2 (UniProt P52657), the log2 fold change in experiment [1] was inactive: -0.01; with vorinostat, inactive: 0.123; with silmitasertib, inactive: -0.068; in experiment [2], inactive: -0.046; with entospletinib, inactive: 0.047.

Turning to HDAC3 (UniProt O15379), the log2 fold change was inactive: -0.016 in experiment [1]; active: -0.264 in the experiment with vorinostat; inactive: -0.027 with silmitasertib; inactive: -0.008 in experiment [2]; inactive: 0 with entospletinib.

For the target HCFC1 (UniProt P51610), the log2 fold change in experiment [1] is inactive: -0.196; with vorinostat, inactive: 0.137; with silmitasertib it was inactive: -0.508; in experiment [2] it was inactive: 0.008.

For HEATR1 (UniProt Q9H583), the log2 fold change in experiment [1] is inactive: 0.052; in the experiment with vorinostat, inactive: -0.054; in the experiment with silmitasertib, inactive: 0.025; in experiment [2], inactive: 0.019; with entospletinib, inactive: 0.02.

For HDLBP, A0A024R4E5, the log2 fold change is inactive: 0.009 in experiment [1]; active: -0.427 in the experiment with vorinostat; inactive: -0.013 in the experiment with silmitasertib; inactive: 0.004 in experiment [2]; inactive: 0.009 with entospletinib.
